Values from PubChem BioAssay AID504791 (Drosophila RNAi Screening Center, 2011)
The deposit covers about 23,000 reagents; below is a random part of those with a known target gene and a result. In the full data, 199 (0.86%) were called active. 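Plate-scaled ratios behind the calls are not deposited; printed light signals are raw; many rows marked increased or decreased are still called inactive.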 Entries without a mark were called inactive. Reagents against one gene are numbered here. Not given: the direction of the score.

Assay: 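Genes of the fly required for silencing by miRNA, siRNA or endo-siRNA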 (primary screen)
Cells: Drosophila S2-derived reporter cells
Knock-down reagent: long dsRNA against Drosophila genes, about 150-250 ng dsRNA per well (siRNA assay); about 80-120 ng (miRNA assay)
Timing: about 5 days (siRNA assay); about 4 days (miRNA assay)
Conditions: copper sulfate induction of reporters: 25 µM (siRNA assay); 200 mM stated (miRNA assay), 1-2 days before reading
Measurement: 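Per-well ratio of Renilla over firefly light, expressed relative to that plate's average ratio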
Units: stable assay Renilla, run 1 in luminescence; stable assay firefly, run 1 in luminescence
Hit rule: 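First-pass picks had plate-scaled ratios over 1.5 for the siRNA assay, over 1.6 for the miRNA assay, or under 0.6; two distinct dsRNAs had to score alike on retest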

CG31087 gave stable assay Renilla, run 1 = 5296; stable assay firefly, run 1 = 2.90e5.
Against CG1275 the deposit lists stable assay Renilla, run 1 = 12266; stable assay firefly, run 1 = 4.13e5.
Silencing of CG12507 gave: stable assay Renilla, run 1 = 5355; stable assay firefly, run 1 = 3.55e5.
For wge (winged eye) #1, the entry reads stable assay Renilla, run 1 = 8726; stable assay firefly, run 1 = 3.78e5.
After knock-down of wge (winged eye) #2, the record shows stable assay Renilla, run 1 = 6239; stable assay firefly, run 1 = 3.16e5.
Acp1 (Adult cuticle protein 1) gave stable assay Renilla, run 1 = 6844; stable assay firefly, run 1 = 4.01e5.
For Acat1 (Acetyl-CoA acetyltransferase 1) the deposit lists stable assay Renilla, run 1 = 7022; stable assay firefly, run 1 = 3.22e5.
Depletion of nom (numerous disordered muscles) came out at: stable assay Renilla, run 1 = 7055; stable assay firefly, run 1 = 3.86e5.
After knock-down of Mp20 (Muscle protein 20), the record shows stable assay Renilla, run 1 = 5770; stable assay firefly, run 1 = 2.94e5.
With knock-down of CG10064 the results were stable assay Renilla, run 1 = 5760; stable assay firefly, run 1 = 3.15e5.
Knock-down of btv (beethoven) #1 came out at: stable assay Renilla, run 1 = 6222; stable assay firefly, run 1 = 4.31e5.
btv (beethoven) #2 gave stable assay Renilla, run 1 = 6996; stable assay firefly, run 1 = 3.64e5.
CG13747 scored stable assay Renilla, run 1 = 5762; stable assay firefly, run 1 = 3.93e5.
For CG10433 the deposit lists stable assay Renilla, run 1 = 8465; stable assay firefly, run 1 = 1.13e6.
Silencing of Tao #1 gave: stable assay Renilla, run 1 = 4711; stable assay firefly, run 1 = 5.31e5.
Depletion of Tao #2 came out at: stable assay Renilla, run 1 = 7218; stable assay firefly, run 1 = 7.58e5.
Depletion of Tao #3 gave: stable assay Renilla, run 1 = 3680; stable assay firefly, run 1 = 4.25e5.
With knock-down of CG7289 the results were stable assay Renilla, run 1 = 13160; stable assay firefly, run 1 = 7.61e5.
For CG9512 the deposit lists stable assay Renilla, run 1 = 9131; stable assay firefly, run 1 = 5.60e5.
Silencing of Nurf-38 (Nucleosome remodeling factor - 38kD) gave: stable assay Renilla, run 1 = 6012; stable assay firefly, run 1 = 4.47e5.
With knock-down of CG8086 #1 the results were stable assay Renilla, run 1 = 11469; stable assay firefly, run 1 = 4.66e5.
Depletion of CG8086 #2 gave: stable assay Renilla, run 1 = 7655; stable assay firefly, run 1 = 3.64e5.
After knock-down of CG13123 the results were stable assay Renilla, run 1 = 8482; stable assay firefly, run 1 = 5.25e5.
After knock-down of strat (stratum), the record shows stable assay Renilla, run 1 = 6795; stable assay firefly, run 1 = 4.36e5.
After knock-down of CG33080 #1, the record shows stable assay Renilla, run 1 = 7148; stable assay firefly, run 1 = 4.49e5.
CG33080 #2 gave stable assay Renilla, run 1 = 7914; stable assay firefly, run 1 = 5.12e5.
CG33080 #3 scored stable assay Renilla, run 1 = 6279; stable assay firefly, run 1 = 3.67e5.
After knock-down of CG6800, the screen gave stable assay Renilla, run 1 = 7930; stable assay firefly, run 1 = 4.17e5.

4 of these entries, set out differently:
target | reagent | stable assay Renilla, run 1 | stable assay firefly, run 1
CG10433 | 1 | 8465 | 1.13e6
Tao | 1 | 4711 | 5.31e5
Tao | 2 | 7218 | 7.58e5
Tao | 3 | 3680 | 4.25e5
